Assay results taken from patent publication US20060286608A1, “Method for screening transglutaminase 2 inhibitor or activator” (priority 2005, published 2006).
No constants are given. Whether binding was seen depends on the method and setting. In cells and extracts the contact can be indirect. Some binding calls cover weakened binding; strength is not graded here.

Biological target: full-length human NF-κB (p65) (human), Q04206
Assay: co-immunoprecipitation with an NF-κB(p65) antibody, Western blotting against I-κBα
Conditions: remark: other sources report otherwise

B1: full-length human I-κBα (free form), P25963 1-317 (protein, UniProt P25963 1-317, looked up, not shown: small tags and cut ends)
chain: MFQAAERPQEWAMEGPRDGLKKERLLDDRHDSGLDSMKDEEYEQMVKELQEIRLEPQEVPRGSEPWKQQLTEDGDSFLHLAIIHEEKALTMEVIRQVKGDLAFLNFQNNLQQTPLHLAVITNQPEIAEALLGAGCDPELRDFRGNTPLHLACEQGCLASVGVLTQSCTTPHLHSILKATNYNGHTCLHLASIHGYLGIVELLVSLGADVNAQEPCNGRTALHLAVDLQNPDLVSLLLKCGADVNRVTYQGYSPYQLTWGRPSTRIQQQLGQLTLENLQMLPESEDEESYDTESEFTEFTEDELPYDDCVFGGQRLTL
How did the binding turn out when B1 was run?
Its binding is “binds”.
